Source: patent publication US12297293B2 (NANTONG UNIVERSITY, priority 2021, dated 2025)
Ends that are not written are not given here.

Key:
[1] = general procedure: Fmoc solid-phase peptide synthesis; Wang resin; N,N-diisopropylethylamine/1-hydroxybenzotriazole/O-benzotriazole-tetramethyluron; details: whole synthesis
[2] = general procedure: Fmoc solid-phase peptide synthesis; wang resin; N,N-diisopropylethylamine/1-hydroxybenzotriazole/O-benzotriazole-tetramethyluron; details: whole synthesis

Sequence	isolated yield [1]	final purity (method not given) [2]
MISYGGADY	45%	99%
SYGGADYKR	40%	97%
VYRCMISYG	38%	98%
YGGADYKRI	42%	98%
YRCMISYGG	35%	99%
